Our source for the binding values is PMC13586215.

Amino acid sequences for entries named in this document (tags omitted).
UniProt Q17RN3: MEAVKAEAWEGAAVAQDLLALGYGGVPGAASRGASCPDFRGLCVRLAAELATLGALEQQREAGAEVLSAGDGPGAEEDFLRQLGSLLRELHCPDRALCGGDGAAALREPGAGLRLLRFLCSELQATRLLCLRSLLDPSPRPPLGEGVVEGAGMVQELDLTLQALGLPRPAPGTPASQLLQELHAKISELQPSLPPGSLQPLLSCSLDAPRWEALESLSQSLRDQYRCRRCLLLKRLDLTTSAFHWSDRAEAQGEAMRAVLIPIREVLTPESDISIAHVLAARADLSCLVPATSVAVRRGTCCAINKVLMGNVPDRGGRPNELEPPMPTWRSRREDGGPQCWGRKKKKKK

The target of assay [1] is N-terminally FLAG-HA-tagged, full-length FAM98A (human) (UniProt Q8NCA5). The assay is described as follows: affinity purification with mass spectrometry; anti-FLAG IP from HEK FITR cells expressing N-terminally FLAG-HA-tagged full-length FAM98A, FAM98B or FAM98C; eight washes in detergent-free lysis buffer; on-bead digestion, DIA-PASEF LC-MS; cells without construct as control; three independent experiments.

Assay [2] concerns the target FLAG-HA-tagged FAM98C (human) (UniProt Q17RN3). The assay is described as above.

These are yes or no findings as the source states them, for the method shown. In cells and extracts the contact can be indirect. A yes stands for co-enrichment or nearness to the bait. Other partners may have been found. No binding means not detected with the bait.

B1: Ashwin (endogenous) (protein, UniProt Q9BVC5-1 1-232)
chain: MAGDVGGRSCTDSELLLHPELLSQEFLLLTLEQKNIAVETDVRVNKDSLTDLYVQHAIPLPQRDLPKNRWGKMMEKKREQHEIKNETKRSSTVDGLRKRPLIVFDGSSTSTSIKVKKTENGDNDRLKPPPQASFTSNAFRKLSNSSSSVSPLILSSNLPVNNKTEHNNNDAKQNHDLTHRKSPSGPVKSPPLSPVGTTPVKLKRAAPKEEAEAMNNLKPPQAKRKIQHVTWP
As to B1, the binding entry in assay [1] and in assay [2] was “no binding” throughout.
